Experimental data reported in article PMC12223775.
Results are given in words; binding and its absence hold for the method and conditions named. In cells and extracts the contact can be indirect. Some results given as binding are weak or reduced against the parent protein; the word gives no strength.

By UniProt entry, the sequences of proteins in these tests, tags left out.
UniProt P46937: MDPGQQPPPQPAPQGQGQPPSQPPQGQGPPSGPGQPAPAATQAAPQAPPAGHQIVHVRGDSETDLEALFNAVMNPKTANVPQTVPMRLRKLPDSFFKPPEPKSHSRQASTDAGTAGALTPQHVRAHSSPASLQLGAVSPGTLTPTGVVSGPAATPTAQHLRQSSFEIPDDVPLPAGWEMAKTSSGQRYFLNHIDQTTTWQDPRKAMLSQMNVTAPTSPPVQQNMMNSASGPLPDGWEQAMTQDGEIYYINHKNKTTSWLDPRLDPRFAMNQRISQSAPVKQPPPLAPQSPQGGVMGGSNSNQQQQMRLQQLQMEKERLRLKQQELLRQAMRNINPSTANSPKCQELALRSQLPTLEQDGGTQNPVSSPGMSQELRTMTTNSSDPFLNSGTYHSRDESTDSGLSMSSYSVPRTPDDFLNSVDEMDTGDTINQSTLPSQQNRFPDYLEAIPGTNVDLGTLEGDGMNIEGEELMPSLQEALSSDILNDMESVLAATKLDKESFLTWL
UniProt P49321: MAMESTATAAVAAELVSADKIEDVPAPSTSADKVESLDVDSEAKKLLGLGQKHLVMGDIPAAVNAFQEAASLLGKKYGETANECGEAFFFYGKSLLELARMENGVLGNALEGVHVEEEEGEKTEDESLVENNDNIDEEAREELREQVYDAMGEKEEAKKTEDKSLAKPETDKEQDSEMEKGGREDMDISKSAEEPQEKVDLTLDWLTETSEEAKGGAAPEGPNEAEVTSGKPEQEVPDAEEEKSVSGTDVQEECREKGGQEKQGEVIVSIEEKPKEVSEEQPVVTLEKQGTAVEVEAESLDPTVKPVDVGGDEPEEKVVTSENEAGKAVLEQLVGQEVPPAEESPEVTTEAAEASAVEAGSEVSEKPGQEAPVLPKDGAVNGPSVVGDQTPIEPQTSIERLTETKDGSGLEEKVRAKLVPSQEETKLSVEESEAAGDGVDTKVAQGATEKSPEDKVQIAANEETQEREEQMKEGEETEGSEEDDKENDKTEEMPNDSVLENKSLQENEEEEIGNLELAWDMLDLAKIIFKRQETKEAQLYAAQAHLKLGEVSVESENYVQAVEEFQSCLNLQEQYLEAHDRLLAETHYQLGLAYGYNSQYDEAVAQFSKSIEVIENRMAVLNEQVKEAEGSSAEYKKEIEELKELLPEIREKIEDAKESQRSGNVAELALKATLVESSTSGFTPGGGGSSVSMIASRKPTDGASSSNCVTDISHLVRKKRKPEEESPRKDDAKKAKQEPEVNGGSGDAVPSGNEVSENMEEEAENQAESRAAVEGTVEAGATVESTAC

Assays:
[1] = target: T1, USP15 (human (endogenous in TNBC cell lines)) (UniProt Q9Y4E8); assay: co-IP; co-IP from TNBC cells (anti-YAP1 or anti-USP15), western blotting; procedure referred to a previous study
T1 sequence: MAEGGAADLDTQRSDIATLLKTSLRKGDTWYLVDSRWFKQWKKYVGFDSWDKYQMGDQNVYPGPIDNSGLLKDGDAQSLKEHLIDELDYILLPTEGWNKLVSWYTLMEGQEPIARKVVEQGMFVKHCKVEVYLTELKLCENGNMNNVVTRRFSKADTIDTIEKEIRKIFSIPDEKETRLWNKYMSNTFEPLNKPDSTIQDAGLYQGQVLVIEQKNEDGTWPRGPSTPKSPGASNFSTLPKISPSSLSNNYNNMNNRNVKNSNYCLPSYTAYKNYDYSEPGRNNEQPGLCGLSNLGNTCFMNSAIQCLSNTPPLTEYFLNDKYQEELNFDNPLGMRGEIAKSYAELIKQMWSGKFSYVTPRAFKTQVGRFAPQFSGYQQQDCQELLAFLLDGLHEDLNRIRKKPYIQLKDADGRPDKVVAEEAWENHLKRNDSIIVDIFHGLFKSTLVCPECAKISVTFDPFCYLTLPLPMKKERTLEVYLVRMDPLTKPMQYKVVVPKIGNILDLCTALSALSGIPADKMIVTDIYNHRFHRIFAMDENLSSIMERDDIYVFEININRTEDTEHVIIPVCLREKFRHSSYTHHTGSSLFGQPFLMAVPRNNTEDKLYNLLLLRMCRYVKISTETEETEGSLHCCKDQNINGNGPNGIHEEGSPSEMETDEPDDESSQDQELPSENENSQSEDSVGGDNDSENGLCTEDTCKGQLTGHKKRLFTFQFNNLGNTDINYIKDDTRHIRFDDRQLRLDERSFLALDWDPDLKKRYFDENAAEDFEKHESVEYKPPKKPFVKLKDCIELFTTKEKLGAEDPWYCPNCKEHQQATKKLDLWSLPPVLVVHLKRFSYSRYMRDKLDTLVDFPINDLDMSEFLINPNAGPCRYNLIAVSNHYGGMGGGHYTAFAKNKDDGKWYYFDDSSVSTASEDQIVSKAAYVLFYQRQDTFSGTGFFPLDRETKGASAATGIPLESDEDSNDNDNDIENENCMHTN

[2] = target: yes-associated protein (YAP) (human (endogenous in TNBC cell lines)) (UniProt P46937); assay: as above

nuclear autoantigenic sperm protein (NASP) (from UniProt P49321 1-788)
binding [1]: binds

B1: USP15 (enzyme, UniProt Q9Y4E8 1-981)
chain: MAEGGAADLDTQRSDIATLLKTSLRKGDTWYLVDSRWFKQWKKYVGFDSWDKYQMGDQNVYPGPIDNSGLLKDGDAQSLKEHLIDELDYILLPTEGWNKLVSWYTLMEGQEPIARKVVEQGMFVKHCKVEVYLTELKLCENGNMNNVVTRRFSKADTIDTIEKEIRKIFSIPDEKETRLWNKYMSNTFEPLNKPDSTIQDAGLYQGQVLVIEQKNEDGTWPRGPSTPKSPGASNFSTLPKISPSSLSNNYNNMNNRNVKNSNYCLPSYTAYKNYDYSEPGRNNEQPGLCGLSNLGNTCFMNSAIQCLSNTPPLTEYFLNDKYQEELNFDNPLGMRGEIAKSYAELIKQMWSGKFSYVTPRAFKTQVGRFAPQFSGYQQQDCQELLAFLLDGLHEDLNRIRKKPYIQLKDADGRPDKVVAEEAWENHLKRNDSIIVDIFHGLFKSTLVCPECAKISVTFDPFCYLTLPLPMKKERTLEVYLVRMDPLTKPMQYKVVVPKIGNILDLCTALSALSGIPADKMIVTDIYNHRFHRIFAMDENLSSIMERDDIYVFEININRTEDTEHVIIPVCLREKFRHSSYTHHTGSSLFGQPFLMAVPRNNTEDKLYNLLLLRMCRYVKISTETEETEGSLHCCKDQNINGNGPNGIHEEGSPSEMETDEPDDESSQDQELPSENENSQSEDSVGGDNDSENGLCTEDTCKGQLTGHKKRLFTFQFNNLGNTDINYIKDDTRHIRFDDRQLRLDERSFLALDWDPDLKKRYFDENAAEDFEKHESVEYKPPKKPFVKLKDCIELFTTKEKLGAEDPWYCPNCKEHQQATKKLDLWSLPPVLVVHLKRFSYSRYMRDKLDTLVDFPINDLDMSEFLINPNAGPCRYNLIAVSNHYGGMGGGHYTAFAKNKDDGKWYYFDDSSVSTASEDQIVSKAAYVLFYQRQDTFSGTGFFPLDRETKGASAATGIPLESDEDSNDNDNDIENENCMHTN
binding [2]: binds
